Some of the results follow. These are further read-outs of the screen, such as a control signal, another cell line or another target. No call is given for them. The list favours compounds with an active or inconclusive main result. The note in brackets gives the kind of curve behind each potency; many fits are weak.

Our source for the AC50 values is PubChem BioAssay AID445 (National Center for Advancing Translational Sciences (NCATS), 2006).

The nature of the assay: IkB Signaling. The conditions noted are these: ABC-DLBCL IkBa-CBG/CBR dual luciferase ratio (green luciferase fused to IkBa over red control in OCI-Ly3 lymphoma cells), 4 h; measured here: control luc red channel unless noted. In short, it runs like this:
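In this assay, an IκBα–CBG68 fusion accumulates when IKK-driven degradation is blocked; native CBR normalizes for cell number. OCI-Ly3 cells were treated 4 h with compound and doxycycline, then green and red light read after Chroma-Glo addition.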
Turning to `Cc1ccc(CNc2c(C)c(C)nc3nncn23)cc1`, the AC50 (usually the concentration at which the activity in the assay is half-maximal) was 15.8 µM [falling, partial curve].

Consider `COc1ccc(OC)c(C2CC(=O)Nc3ccc4ccccc4c32)c1` (stereo not given), for which the AC50 was 39.8 µM [falling, single point].

On to `CC1Cc2cc(S(=O)(=O)CCC(=O)Nc3ccc(OC(F)(F)F)cc3)ccc2N1C(=O)C1CC1` (stereo not given), for which the AC50 was 3.16 µM [falling, full curve].

In the case of `CCN(C(=O)CCS(=O)(=O)c1cc(Br)cc2c1N(C(=O)C1CC1)CC2)c1cccc(C)c1`, the AC50 is 20 µM [falling, partial curve].

For the compound `COc1ccc(Cc2nc3ccc(C(=O)NCCc4ccc(Cl)cc4)cc3o2)cc1`, the AC50 was 3.16 µM [falling, partial curve].

In the case of `Cc1ccc(C)c(C(=O)N2CCC(c3nc4c(nnn4Cc4ccccc4)c(=O)[nH]3)CC2)c1`, the AC50 was 31.6 µM [falling, single point].

With `CCOCCCn1c(SCC(=O)Nc2ccccc2OC)nc2c(oc3ccccc32)c1=O`, the AC50 is 31.6 µM [falling, partial curve].

For the compound `CCOc1ccccc1N1CC(c2nc3ccccc3n2CCCCOc2ccccc2)CC1=O` (stereo not given), the AC50 was 15.8 µM [falling, partial curve].

For the compound `CCOc1ccc(Nc2oc(/C=C/c3cc(OC)c(OC)c(OC)c3)nc2C#N)cc1`, the half-maximal activity concentration (AC50) was 5.01 µM [falling, single point].

Take `CN(C)CCC(=O)c1ccc(Cl)cc1`: the AC50 is 25.1 µM [falling, partial curve].

Take `COc1ccc(NC(=O)CN(C)S(=O)(=O)c2cnc[nH]2)cc1`: the AC50 is 0.631 µM [falling, partial curve].

Turning to `CCOc1ccc(NC(=O)CSc2nc3ccccc3c(=O)n2CCC(=O)NC2CCCCC2)cc1`, the AC50 is 5.01 µM [rising, partial curve].

For the compound `COc1cc(C(=O)NCCSc2c(C)[nH]c3ccccc23)cc(OC)c1OC`, the AC50 was 10 µM [falling, partial curve].

Consider `COc1ccc(-c2noc(C3CC(=O)N(c4ccc5c(c4)OCCO5)C3)n2)c(OC)c1` (stereo not given), for which the AC50 is 12.6 µM [falling, partial curve].

Take `O=C1CC(N2CCN(c3nc4ccccc4s3)CC2)C(=O)N1Cc1cccs1` (stereo not given): the AC50 was 7.94 µM [falling, partial curve].

Regarding `CCc1ccccc1NC(=O)[C@H](Cc1ccccc1)N1Cc2ccccc2C1=O`, the AC50 was 20 µM [falling, partial curve].

With `O=C(COc1ccc(Cl)cc1)Nc1nnc(-c2ccc3c(c2)CCCC3)o1`, the AC50 was 6.31 µM [rising, single point] [measured here: IkB-luc green channel].

For the compound `COc1ccc(NC(=O)N2CCc3c(sc4c3CCCC4)C2c2ccc(F)cc2)cc1` (stereo not given), the AC50 was 3.98 µM [falling, full curve].

Consider `CCn1c(=O)c2cc(C(=O)N(C)c3cc(C)ccc3C)sc2c2ccccc21`, for which the AC50 was 25.1 µM [falling, single point].

On to `CC(C)c1ccc(Nc2nc3ccc(C(=O)c4ccccc4)cc3n3cnnc23)cc1`, for which the AC50 was 0.000631 µM [rising, full curve].

Turning to `Cc1ccc(NC(=O)Nc2nnc(N3CCCCC3)s2)c(C)c1`, the half-maximal activity concentration (AC50) is 15.8 µM [falling, single point].

On to `CCOC(=O)C1CCN(C(=O)COc2ccc(Br)cc2)CC1`, for which the AC50 is 0.631 µM [falling, full curve].

Regarding `CCc1ccc(CNC(=O)c2cc3c(=O)oc4ccc(C)cc4c3s2)cc1`, the concentration at half-maximal activity (AC50) is 31.6 µM [rising, partial curve].

Take `COc1ccc(NC(=O)c2ccc3snnc3c2)cc1OC`: the half-maximal activity concentration (AC50) is 0.0316 µM [rising, full curve].

Turning to `CCOc1ccc(-n2c(=O)c3c4c(sc3n(Cc3cccc(Cl)c3)c2=O)CCCC4)cc1`, the AC50 was 3.98 µM [falling, partial curve].

As to `O=C(NCC(c1ccc2c(c1)OCO2)N1CCOCC1)c1ccc(F)cc1` (stereo not given), the AC50 was 5.01 µM [rising, full curve].

Turning to `CCCCN1CC(c2nc3ccccc3n2CCCCOc2c(C)cccc2C)CC1=O` (stereo not given), the AC50 is 0.1 µM [falling, full curve].

For the compound `CCOc1ccc(Sc2cc(C(=O)NCCc3ccc(OC)c(OC)c3)c3ccccc3n2)cc1`, the AC50 was 0.00631 µM [falling, full curve, poor fit].

As for `COc1ccc(C)cc1NC(=O)CN1CCN(c2ccc(F)cc2)CC1`, the AC50 was 20 µM [falling, partial curve].

Consider `CCn1c(=NC(=O)CSC(C)=O)sc2cc(F)ccc21`, for which the AC50 was 12.6 µM [falling, partial curve].

For `COc1ccc(-c2nn(-c3ccccc3)cc2C(=O)Nc2ccccc2OC)cc1`, the AC50 is 15.8 µM [falling, partial curve].

Regarding `O=C1c2[nH]nc(-c3ccccc3O)c2C(c2cccc(Cl)c2)N1CC1CCCO1` (stereo not given), the AC50 was 20 µM [falling, partial curve].

`Cc1cccc(C(=O)Nc2ccccc2-c2nc(-c3ccccc3)no2)c1`: the AC50 is 2 µM [rising, full curve].

For the compound `O=c1c2oc3ccccc3c2n(Cc2ccccc2F)c(=O)n1Cc1ccco1`, the AC50 is 1 µM [rising, full curve, poor fit].

With `Cc1c(CNCCCc2ccccc2)c(C(=O)O)c(C)n1Cc1ccc(Cl)cc1`, the AC50 is 15.8 µM [falling, partial curve].

For `Cc1ccc(Cn2cc(CCC(=O)NC3CCCCC3)c3ccccc32)cc1`, the AC50 was 7.94 µM [falling, partial curve].

Regarding `Cc1cc(-n2c(C)cc(C(=O)CSc3ccc4c(c3)OCCO4)c2C)no1`, the half-maximal activity concentration (AC50) was 25.1 µM [falling, partial curve].

As to `CCCCCSc1nnc2c(n1)OC(c1ccc(C)s1)N(C(C)=O)c1ccccc1-2` (stereo not given), the AC50 is 31.6 µM [falling, partial curve].

With `Cc1c(Cl)cccc1N1CC(c2nc3ccccc3n2Cc2ccccc2F)CC1=O` (stereo not given), the AC50 was 39.8 µM [falling, single point].

For `Oc1ccccc1-c1nc(/C=C/c2ccc(F)cc2)no1`, the half-maximal activity concentration (AC50) is 0.0398 µM [falling, full curve].
